Results deposited as PubChem BioAssay AID1259284 (Sanger Institute, 2017)
Shown is a random part of 794 deposited reagents. In the full data, 16 (2%) were called active. 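Calls concern knock-down without drug only; drug synergy was judged apart, with scores above 0.15 taken as synergy.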 No viability above 1 is reported: the scale is capped. No sequences are given here. Not stated in the record: the amount of reagent, the time to read-out.

Purpose: 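siRNA screen across the kinome seeking partners for BYL719, cetuximab or trametinib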 (primary screen)
Cell system: SW48 human colorectal cancer cells
Knock-down reagent: siRNA pool against human genes
Challenge: anchor drug BYL719 at 1 µM, cetuximab at 5 µg/ml or trametinib at 10 nM, or DMSO vehicle alone
Detection: 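Cell viability relative to non-targeting pool wells, replicate mean, with robust z-scores and drug synergy scores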
Reading the numbers: robust z-score, no drug: higher = more cells survive knock-down; viability, no drug: higher = more viable cells; synergy with BYL719 and synergy with trametinib and synergy with cetuximab: higher = stronger combined killing with drug
Call rule: 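a knock-down is essential if viability without drug gives a robust z-score under -3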
Meaning of the calls: active = essential without drug; inactive = no change without drug

gene,"robust z-score, no drug","viability, no drug (fraction of control)",synergy with BYL719,synergy with trametinib,synergy with cetuximab,activity call
BCR,0.17,0.978,-0.184,0.171,-0.0727,inactive
RIPK4,0.426,1,-0.343,-0.159,-0.114,inactive
MAK,0.426,1,0.0177,0.0171,0.0102,inactive
PKIA,0.426,1,0.0504,-0.0557,0.0313,inactive
PIK3CD,-0.542,0.917,-0.164,-0.0816,-0.234,inactive
TP53,0.426,1,-0.367,-0.16,-0.149,inactive
BMAL1,-2.05,0.788,-0.0297,0.138,-0.0774,inactive
STK26,0.426,1,-0.204,0.0449,-0.14,inactive
CDK18,-1,0.878,-0.283,-0.0108,-0.17,inactive
PRKAR2B,-2.6,0.74,-0.131,-0.0989,-0.126,inactive
ETNK2,0.426,1,0.0161,-0.00544,-0.099,inactive
RNASEL,0.426,1,-0.304,-0.171,-0.1,inactive
MAP2K3,0.426,1,-0.0511,0.0432,0.145,inactive
TPK1,0.426,1,0.0527,0.0601,0.163,inactive
TBX3,0.426,1,-0.271,-0.329,-0.165,inactive
CAMK1,0.426,1,-0.181,-0.125,-0.0751,inactive
MOK,0.426,1,-0.108,-0.165,0.0148,inactive
MINK1,0.426,1,-0.111,-0.191,-0.165,inactive
CDKL4,0.426,1,-0.0582,0.197,0.0147,inactive
BMX,0.426,1,-0.249,-0.166,-0.144,inactive
ITPKA,0.426,1,-0.0664,-0.123,-0.0285,inactive
MYO3A,-1.42,0.842,-0.171,-0.177,-0.0665,inactive
STK36,0.426,1,-0.213,-0.113,-0.165,inactive
IKBKE,0.426,1,-0.202,-0.162,-0.105,inactive
DNMT3A,0.426,1,-0.342,-0.15,-0.165,inactive
DGKB,-3.16,0.692,-0.25,0.00323,-0.237,active

Reagents listed so far with an active call, once more:
gene,"robust z-score, no drug","viability, no drug (fraction of control)",synergy with BYL719,synergy with trametinib,synergy with cetuximab,activity call
DGKB,-3.16,0.692,-0.25,0.00323,-0.237,active

Further reagents follow:
gene,"robust z-score, no drug","viability, no drug (fraction of control)",synergy with BYL719,synergy with trametinib,synergy with cetuximab,activity call
MAPKAPK3,-1.86,0.804,-0.0124,-0.104,-0.0544,inactive
GALK2,-0.754,0.899,0.022,0.108,0.139,inactive
ROR2,0.322,0.991,-0.134,-0.121,-0.0667,inactive
BRD3,0.426,1,-0.162,-0.0588,-0.137,inactive
MGA,-2.48,0.751,-0.183,-0.124,-0.174,inactive
NME2,0.426,1,-0.155,-0.0227,-0.0565,inactive
DYRK4,0.426,1,0.0453,-0.0354,-0.038,inactive
YES1,-0.511,0.92,-0.22,-0.0792,-0.114,inactive
HUNK,0.426,1,0.018,0.0795,0.0992,inactive
STYK1,0.426,1,-0.184,-0.191,-0.0976,inactive
PTGS1,0.426,1,-0.143,-0.0246,-0.117,inactive
FYN,0.0355,0.966,-0.234,-0.238,-0.0262,inactive
HK2,0.426,1,-0.234,-0.0877,-0.165,inactive
EGFR,-1.39,0.844,-0.0789,0.028,-0.146,inactive
LMBR1,0.426,1,-0.201,-0.162,0.0975,inactive
PHKG2,0.426,1,-0.149,-0.322,0.0117,inactive
FN3KRP,-1.27,0.855,-0.124,-0.0145,-0.0456,inactive
ABL2,0.426,1,-0.0115,-0.0346,-0.0931,inactive
AMHR2,0.426,1,-0.106,0.0263,0.0879,inactive
PI4K2B,0.426,1,-0.167,-0.161,-0.114,inactive
MYLK,-1.25,0.856,-0.11,0.0452,0.0849,inactive
PHKA1,0.426,1,-0.237,-0.0772,-0.114,inactive
EPHB1,0.426,1,-0.157,-0.0819,0.0899,inactive
KCNH8,-1.24,0.857,-0.0481,0.0965,-0.0567,inactive
